The other results are listed elsewhere or left out.
Target: OsWRKY34 (Oryza sativa, UniProt Q0JBA9 1-250)
Assay: protein-binding microarray (RPBM); PBS, 2% BSA, 51.3 ng/ul salmon testes DNA, 50 uM zinc acetate, 200 nM TF, 25 C, 1 h; high values mean tight binding
Settings: protein: recombinant; tags: N-terminal polyhistidine and DsRed monomer fusion (pET32a); label: CyDye5-dUTP incorporated in the synthesized complementary strand; 3' TTTTT single-stranded linker to array surface; dsDNA, one strand shown
Summary of the method: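 An Axon 4000B scanner gave the binding signal as per-feature fluorescence intensity in arbitrary units. This followed washing of a custom Agilent array that had been incubated for 1 h at 25 °C with 200 nM protein in PBS, 2% BSA, salmon testes DNA and 50 µM zinc acetate. The proteins were transcription factors fused at the N-terminus to polyhistidine and DsRed, expressed in E. coli BL21-CodonPlus and purified on Ni–NTA.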

Chains of the proteins cited; added tags and fusions are not shown.
UniProt Q0JBA9, entry or part of it: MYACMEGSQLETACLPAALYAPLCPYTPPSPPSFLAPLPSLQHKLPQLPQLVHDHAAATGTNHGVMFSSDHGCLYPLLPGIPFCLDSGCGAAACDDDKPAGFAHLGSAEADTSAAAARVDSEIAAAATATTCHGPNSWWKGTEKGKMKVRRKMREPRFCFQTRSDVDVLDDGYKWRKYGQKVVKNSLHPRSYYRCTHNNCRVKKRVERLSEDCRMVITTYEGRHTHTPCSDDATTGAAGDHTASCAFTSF

Row | Sequence | binding signal
1 | ACAAGCCGTTGGTAGTTCCCTTGATCGCTTCCAATAGTCGCGGAGTCACCTAGTGCAG | 8090 fluorescence intensity (a.u.)
2 | GGTGGCGGGGCATCTCGCCGCCGACGGCTCGAGGAGGAAACGGAGTCACCTAGTGCAG | 18400 fluorescence intensity (a.u.)
3 | GCACATATTCCATCAGGCATTATCCGCATTTTTATTGTGCCGGAGTCACCTAGTGCAG | 9310 fluorescence intensity (a.u.)
4 | TCTCCTTATTTTCTGTTGTATTCCGTCTAAGGCATAGTTCCGGAGTCACCTAGTGCAG | 10400 fluorescence intensity (a.u.)
5 | CTCGTTTATCCCCTATATTTTTACATGTCAGCTATTCTTACGGAGTCACCTAGTGCAG | 8380 fluorescence intensity (a.u.)
6 | GTGGAGGGAGTACATGCCTTCGATGATATTTTCTGCTGCTCGGAGTCACCTAGTGCAG | 8600 fluorescence intensity (a.u.)
7 | TACCATACAAATACTGACCTCTGCTTCGTGTACTCTGCCACGGAGTCACCTAGTGCAG | 9800 fluorescence intensity (a.u.)
8 | ATTGAGTCTCCTCTAATCCTCCTCGATGTACCTCATTCCTCGGAGTCACCTAGTGCAG | 12400 fluorescence intensity (a.u.)
9 | TTTTGTGTTTTGCTTCCACACGTTAGTGGTTCGTCCTGTTCGGAGTCACCTAGTGCAG | 10100 fluorescence intensity (a.u.)
10 | ACAGGCGATATGTCACCCTATTTCTGTTGCTGTTCAACGACGGAGTCACCTAGTGCAG | 8410 fluorescence intensity (a.u.)
11 | ACTATATTGCCTGCACCAGGAATCCTCATTCTTTCCTATTCGGAGTCACCTAGTGCAG | 11800 fluorescence intensity (a.u.)
12 | TTAGTTACTTTTATTTCTCTCCTTTTTCTTCTAATCTCCTCGGAGTCACCTAGTGCAG | 8200 fluorescence intensity (a.u.)
13 | ACCCCAACGCAACCACTCTTCTCTACTACAATCGTTACTCCGGAGTCACCTAGTGCAG | 9310 fluorescence intensity (a.u.)
14 | AAATCGGGGAAGCTTCTGGACCTAGCTCTTCTCGCTGTTTCGGAGTCACCTAGTGCAG | 9640 fluorescence intensity (a.u.)
15 | CTGCGTTACTTCGACATTGCCCGACGTGTTGACTGTGTTGCGGAGTCACCTAGTGCAG | 9230 fluorescence intensity (a.u.)
16 | GGCGTGCATTGCAACTTGGATTCTGATTAACTGTCTGCTACGGAGTCACCTAGTGCAG | 9010 fluorescence intensity (a.u.)
17 | ATCAGCACCACACCACTGCTCAAACTACTCCACTTGCTCCCGGAGTCACCTAGTGCAG | 10100 fluorescence intensity (a.u.)
18 | ACGCCCAACCCACTCGATCGTCCGGTGCCCCACCGCCGGCCGGAGTCACCTAGTGCAG | 9030 fluorescence intensity (a.u.)
19 | ACTTATCTCCTCGCTAATTCTCTTGCCATATCAATTTTTTCGGAGTCACCTAGTGCAG | 10500 fluorescence intensity (a.u.)
20 | CAAAGGCGTCCCGATTTTCTCTCTCTGGGTTCCGTACTCTCGGAGTCACCTAGTGCAG | 10100 fluorescence intensity (a.u.)
21 | CACTTGCAATATCTCTATATTCTCTGTTCATATGCATGCACGGAGTCACCTAGTGCAG | 8140 fluorescence intensity (a.u.)

Row | Sequence | binding signal
22 | ATATTTGATGCCGTTGACTTTTTAAAATATATTTGATCATCGGAGTCACCTAGTGCAG | 16400 fluorescence intensity (a.u.)
23 | CGTCACATCGAACTTTTCTATACACCAACTTCTAACTTTTCGGAGTCACCTAGTGCAG | 8890 fluorescence intensity (a.u.)
24 | GCTTGGATTCCCACGTTTTCCACCCACCAAGTCAGCCATCCGGAGTCACCTAGTGCAG | 11700 fluorescence intensity (a.u.)
25 | AACTTGACACGGGTATTTGTATTTATGGCTAATTTTTTTTCGGAGTCACCTAGTGCAG | 9690 fluorescence intensity (a.u.)
26 | GATGTCATCTGCGCCGGTTTTGATAGTTGAGGGACCCATTCGGAGTCACCTAGTGCAG | 10400 fluorescence intensity (a.u.)
27 | GCACAGCTCTCTCCTCCGGCCGCCACCTTCTCTCCGGTGACGGAGTCACCTAGTGCAG | 8690 fluorescence intensity (a.u.)
28 | AGCCCAAGTCTTACCCACCACAAGCCCAACACACCACACTCGGAGTCACCTAGTGCAG | 9260 fluorescence intensity (a.u.)
29 | CCACAGTTAATTCCACACATACATGCACGCGTCTATATATCGGAGTCACCTAGTGCAG | 11200 fluorescence intensity (a.u.)
30 | GATGCACCACTGCTGCGTCGCACGTTCCACCCCATTCCACCGGAGTCACCTAGTGCAG | 8330 fluorescence intensity (a.u.)
31 | ATATATATATATATATATATATATATATATATGAGCGGGACGGAGTCACCTAGTGCAG | 8820 fluorescence intensity (a.u.)
32 | CTGCTTGCGCTCGCATCTCACCGCGTCTCATTCCATCTACCGGAGTCACCTAGTGCAG | 12300 fluorescence intensity (a.u.)
33 | CCTGAGCTTTCGATCTCTTCGGAGTGGTTTCTTGTTCTTTCGGAGTCACCTAGTGCAG | 10500 fluorescence intensity (a.u.)
34 | AATCGATTCGAAATTTCAATGAAAATTTTCCCTCCACACCCGGAGTCACCTAGTGCAG | 8330 fluorescence intensity (a.u.)
35 | GCGTGGTGCAGTTTGCAGGGGATCCTCATTCGACTGTATCCGGAGTCACCTAGTGCAG | 8100 fluorescence intensity (a.u.)
36 | AACACTTACAACATCTCTCTCTCTCTCTCTCTCTCTCTCCCGGAGTCACCTAGTGCAG | 8670 fluorescence intensity (a.u.)
37 | GTGCTTTCTTTCTTTAATTTCCTGTGCAGAAATATACAGGCGGAGTCACCTAGTGCAG | 8690 fluorescence intensity (a.u.)
38 | GATCATTTACCACACAGCTCTTCACCTTTCCTGTGCCACCCGGAGTCACCTAGTGCAG | 11000 fluorescence intensity (a.u.)
39 | GAACTATGTTTTTCTTTTTACAGTCGAGTTTTGAATATTTCGGAGTCACCTAGTGCAG | 8930 fluorescence intensity (a.u.)
40 | CTCCACCATTTATTTACTTGTTCATTTGCTAATTAAGGACCGGAGTCACCTAGTGCAG | 9190 fluorescence intensity (a.u.)
41 | CCACTGACCTGAATTCACCGTTTTACCCCTCCCCGTTCCACGGAGTCACCTAGTGCAG | 10500 fluorescence intensity (a.u.)
42 | CGTTTGTCCTTCGATAACAGTGTGTCATGGCCCATATATACGGAGTCACCTAGTGCAG | 8190 fluorescence intensity (a.u.)

In another format: entries from further up

| Row | Sequence | binding signal |
| --- | --- | --- |
| 24 | GCTTGGATTCCCACGTTTTCCACCCACCAAGTCAGCCATCCGGAGTCACCTAGTGCAG | 11700 fluorescence intensity (a.u.) |
| 42 | CGTTTGTCCTTCGATAACAGTGTGTCATGGCCCATATATACGGAGTCACCTAGTGCAG | 8190 fluorescence intensity (a.u.) |
